The results in this text go back to paper doi:10.1101/2024.11.07.622424.

Amino acid sequences for entries named in this document (tags omitted).
UniProt P25490: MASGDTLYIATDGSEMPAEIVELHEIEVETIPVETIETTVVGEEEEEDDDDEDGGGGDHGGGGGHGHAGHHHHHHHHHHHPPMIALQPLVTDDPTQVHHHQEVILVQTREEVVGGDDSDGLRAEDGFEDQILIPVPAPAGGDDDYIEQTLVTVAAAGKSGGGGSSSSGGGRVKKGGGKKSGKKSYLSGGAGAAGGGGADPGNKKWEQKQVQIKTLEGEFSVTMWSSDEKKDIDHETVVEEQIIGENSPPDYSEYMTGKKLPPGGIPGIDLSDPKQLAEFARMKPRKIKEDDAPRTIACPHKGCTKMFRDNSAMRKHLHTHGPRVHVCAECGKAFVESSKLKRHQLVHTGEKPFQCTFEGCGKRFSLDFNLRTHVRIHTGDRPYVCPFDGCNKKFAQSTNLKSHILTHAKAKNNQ

Results are given in words; binding and its absence hold for the method and conditions named. Binding seen in cells or lysates may run through a third protein. These calls come from enrichment with a bait or labelling near it, and not all partners need be listed.

The target of the experiment is Yin Yang 1 (YY1), endogenous (human (endogenous in THP-1)) (UniProt P25490). Description: affinity purification with mass spectrometry.

B1: nucleolar and spindle-associated protein 1 (NUSAP1), endogenous (protein, UniProt Q9BXS6 1-441)
chain: MIIPSLEELDSLKYSDLQNLAKSLGLRANLRATKLLKALKGYIKHEARKGNENQDESQTSASSCDETEIQISNQEEAERQPLGHVTKTRRRCKTVRVDPDSQQNHSEIKISNPTEFQNHEKQESQDLRATAKVPSPPDEHQEAENAVSSGNRDSKVPSEGKKSLYTDESSKPGKNKRTAITTPNFKKLHEAHFKEMESIDQYIERKKKHFEEHNSMNELKQQPINKGGVRTPVPPRGRLSVASTPISQRRSQGRSCGPASQSTLGLKGSLKRSAISAAKTGVRFSAATKDNEHKRSLTKTPARKSAHVTVSGGTPKGEAVLGTHKLKTITGNSAAVITPFKLTTEATQTPVSNKKPVFDLKASLSRPLNYEPHKGKLKPWGQSKENNYLNQHVNRINFYKKTYKQPHLQTKEEQRKKREQERKEKKAKVLGMRRGLILAED
With B1, the binding result was “binds”.
